The target in one data set is AHR (UniProt P35869). Nature of the data set: DRE-Luciferase Reporter Assay (Alternate Method) (Example 1B). The conditions noted are these: cell line and AHR activating ligand not specified.
The nature of data set [1]: Mouse Pharmacokinetic Study (Example 1C). Particulars: CD-1 mice, po, 30 mg/kg (so in the source); plasma. The procedure:
Formulations of compounds set forth in Table 4 were administered intravenously or orally via gavage to CD-1 mice. Typically, at 0.167, 0.5, 1, 2, 4, 6, 12, and 24 hours post-dose, blood was collected and processed to plasma by centrifugation and stored at −80° C. until analysis.
Internal standard was added to each sample prior to protein precipitation with acetonitrile. The precipitates were filtered through a Phree phospholipid removal filter plate and the samples were analyzed by LC/MS/MS. A standard curve was prepared in plasma from typically from 1.0 ng/mL to 3000 ng/mL and processed in the same manner as the samples. Sample analysis was typically performed on a suitable LC/MS/MS system fitted with an analytical UPLC column and compounds eluted from the analytical column with a gradient from 30-95% 0.1% formic acid (v/v) in ACN: 0.1% formic acid (v/v) in water. Mass spectrometric detection of test compound and the internal standard was performed by MRM in positive mode. The pharmacokinetics of each compound were analyzed by Phoenix WinNonlin software (Pharsight, St. Louis, Mo.) via non-compartmental analysis.

By UniProt entry, the sequences of proteins in these tests, tags left out.
UniProt P35869, whole entry: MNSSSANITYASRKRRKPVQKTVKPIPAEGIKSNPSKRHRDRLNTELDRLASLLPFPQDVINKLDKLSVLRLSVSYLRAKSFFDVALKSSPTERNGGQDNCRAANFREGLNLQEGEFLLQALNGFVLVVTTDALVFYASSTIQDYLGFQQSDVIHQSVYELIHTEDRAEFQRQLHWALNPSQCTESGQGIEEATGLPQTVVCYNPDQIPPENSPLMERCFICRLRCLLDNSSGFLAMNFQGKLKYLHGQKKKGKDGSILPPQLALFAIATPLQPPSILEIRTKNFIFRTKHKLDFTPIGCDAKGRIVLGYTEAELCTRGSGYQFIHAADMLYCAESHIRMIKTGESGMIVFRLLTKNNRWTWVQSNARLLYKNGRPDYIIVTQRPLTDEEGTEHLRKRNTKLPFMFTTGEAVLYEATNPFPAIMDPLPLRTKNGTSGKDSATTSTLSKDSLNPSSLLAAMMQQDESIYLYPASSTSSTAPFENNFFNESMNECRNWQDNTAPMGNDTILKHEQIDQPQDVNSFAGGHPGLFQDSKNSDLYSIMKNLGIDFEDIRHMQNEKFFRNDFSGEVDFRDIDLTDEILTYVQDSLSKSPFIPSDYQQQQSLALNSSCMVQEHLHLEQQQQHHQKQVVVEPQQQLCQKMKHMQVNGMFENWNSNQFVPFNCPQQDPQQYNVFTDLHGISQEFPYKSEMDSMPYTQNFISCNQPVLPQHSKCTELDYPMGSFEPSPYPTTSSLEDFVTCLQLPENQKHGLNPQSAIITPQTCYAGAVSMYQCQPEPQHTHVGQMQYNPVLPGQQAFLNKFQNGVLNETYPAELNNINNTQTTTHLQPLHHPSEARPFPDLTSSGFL

Results on 2 compounds are retold here after US11358969B2, “Indole AHR inhibitors and uses thereof” (Ikena Oncology, Inc., priority 2017, dated 2022).

The structures given here were assigned with low confidence; some may be wrong.

Broadly, the IC50 is the concentration at which inhibition is half-maximal. A lower IC50 goes with greater potency in that assay.

For the compound `Cc1[nH]c2ccc(F)cc2c1CCNc1cc(-c2cncc(F)c2)nc2c(C(C)C)cnn12`, the IC50 on AHR (tested form: HCl) is < 500 nM.

Regarding `OCc1cnn2c(NC[C@H](O)c3c[nH]c4ccccc34)cc(-c3cncc(F)c3)nc12`, the “Vdss” value in data set [1] is recorded as 0.8 L/kg. Besides, at AHR, the IC50 was < 500 nM.
